The experiment deals with transmembrane protein 249 (TMEM249), GFP-tagged (mouse). Nature of the experiment: co-IP; TMEM249-GFP co-transfected with each MYC-tagged CatSper component into HEK293T cells; co-immunoprecipitation complexes immunoblotted with anti-GFP and anti-MYC antibodies; which tag was precipitated is not told.

Amino acid sequences for entries named in this document (tags omitted).
UniProt Q9DAM2: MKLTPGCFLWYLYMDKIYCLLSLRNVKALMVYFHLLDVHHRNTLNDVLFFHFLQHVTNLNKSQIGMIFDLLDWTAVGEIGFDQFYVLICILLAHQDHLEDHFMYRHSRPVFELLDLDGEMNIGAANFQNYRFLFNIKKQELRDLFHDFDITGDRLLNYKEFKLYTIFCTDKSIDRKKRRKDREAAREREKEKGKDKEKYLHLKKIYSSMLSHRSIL

These are yes or no findings as the source states them, for the method shown. In cells and extracts the contact can be indirect. Binding can be weak; no strength is given. Sequences can lack the tags named with a protein.

On to “EFCAB9, MYC-tagged (from UniProt Q9DAM2 1-216)”, for which the binding result is given as “binds”.

B1: CATSPER4, MYC-tagged (protein, UniProt Q8BVN3 1-442)
chain: MSEKHKWWQQVENIDITHLGPKRKAYELLGRHEEQVLINRRDVMEKKDAWDVQEFITQMYIKQLLRHPAFQLLLAFLLLSNAITIALRTNSYLGQKHYELFSTIDDIVLTILICEVLLGWLNGFWIFWKDGWNILNFAIVFILFMGFFIKQLDMVAITYPLRVLRLVHVCMAVEPLARIIKVILQSMPDLANVMALILFFMLVFSVFGVTLFGAFVPKHFQNMGVALYTLFICITQDGWLDIYTDFQMDEREYAMEVGGAIYFAVFITLGAFIGLNLFVVVVTTNLEQMMKTGEEEGHLNIKFTETEEDEDWTDELPLVHCTEARKDTSTVPKEPLVGGPLSNLTEKTCDNFCLVLEAIQENLMEYKEIREELNMIVEEVSSIRFNQEQQNVILHKYTSKSATFLSEPPEGANKQDLITALVSREKVSDSNINMVNKHKFSH
Turning to B1, the binding result is reported as “binds”.

B2: CATSPER1, MYC-tagged (protein, UniProt Q91ZR5 1-686)
chain: MDQSSRRDESYHETHPGSLDPSHQSHPHPHPHPTLHRPNQGGVYYDSPQHGMFQQPYQQHGGFHQQNELQHLREFSDSHDNAFSHHSYQQDRAGVSTLPNNISHAYGGSHPLAESQHSGGPQSGPRIDPNHHPHQDDPHRPSEPLSHPSSTGSHQGTTHQQYHERSHHLNPQQNRDHADTISYRSSTRFYRSHAPFSRQERPHLHADHHHEGHHAHSHHGEHPHHKEQRHYHGDHMHHHIHHRSPSASQLSHKSHSTLATSPSHVGSKSTASGARYTFGARSQIFGKAQSRESLRESASLSEGEDHVQKRKKAQRAHKKAHTGNIFQLLWEKISHLLLGLQQMILSLTQSLGFETFIFIVVCLNTVILVAQTFTELEIRGEWYFMVLDSIFLSIYVLEAVLKLIALGLEYFYDPWNNLDFFIMVMAVLDFVLLQINSLSYSFYNHSLFRILKVFKSMRALRAIRVLRRLSILTSLHEVAGTLSGSLPSITAILTLMFTCLFLFSVVLRALFQDSDPKRFQNIFTTLFTLFTMLTLDDWSLIYIDNRAQGAWYIIPILMIYIVIQYFIFLNLVIAVLVDNFQMALLKGLEKVKLEQAARVHEKLLDDSLTDLNKADANAQMTEEALKMQLIEGMFGNMTVKQRVLHFQFLQLVAAVEQHQQKFRSQAYVIDELVDMAFEAGDDDYGK
Regarding B2, the binding entry is given as “no binding”.

B3: CATSPERβ, MYC-tagged (protein, UniProt A2RTF1 1-1109)
chain: MESPLIYVMLVLLNVFVFSSGVIHNKGKERTYFSCSGEGILTGLHTIKLFLTMDNLKVRCFFRNENQSPSKEILGLFTSGGLAPNMIITNSTFYGGYYFKLTPFSNRLEWLIDIPRQNITVNTDIAAVEQWMIKITMHEGLNIYDTEGTLLDLVREPILQWNLGRVLTEMEVRDLYPEVNDIKVTKSPCANDVALIGFMMKPSSNGVFIGKTISGFWTYKECIWHDLTEIIYAELKDEHQGLTVIDLVLTNHFLVILTSLGLYVSSDLRYPTTSQIKLSRAEFCGFERVDYIRGNLWYNEKCFANRESFEVDYVTITFNRNRTLSESSSCFFSKEPFLHWLPCVFSTIKNEKSIPRVITFLIDQETDSGIYLFNVQDTKETYVTVAMLKDGKPSPRPKFPSFHFPSTFTLPLGMIFHPRSHFLYVYGSQIWVSMDGGNTFEMLCNLFSHHVTKTSNSFYTSDIVFIVEDGRILTTKAGLTTYSELGILKDAIFTLYYDQLGYIHKLTPENFDAGSKLLGHGNSGSIFGKRPDLGFEAILVPQYISTNEMYFFAHVPLTMPTNIQWKKRFKTIHLGKTIEFSKTGLANIKNVYMHKTEPVGFQTSIHTEIIVPFGIENSKDSPCLLSDLEITYSGKLYYTIKLLSKNPLHELKSTDVEKSVLIPGYSSFLIMNITDKWTASALATMPQAIKSNLKFLTGSWFLYNFGTAGGRKWSISTRQCNYWIQQDSLDFMSLNLVKYIDVGNTIDFQFKIIPKAMSTFPIPPVSMVVGNPGLVEVKTQGVFDLNENYYLDIHVSGRFFQKGSTSIALVLWEGSSKCYAITLLPTIKSSCSYLRTMHHTPGRHIPPEDWISGVHKDSQGFNMIKTLPINYRPPSHMGISIPLTDNFYHADPSKPIPRNQFHKSKETGKYKQCANVTSRAMCNCSEHQKFSHAVAFSDCKEKVHRFKFPVTQYPVVLEIFNERDKISAEPPYLVTMTEVNMRKNWQLKHNEPENVKKMKHYLEPLLKTPVYNPLGLNLTIQGSELFHFKVSVVPGVSFCELSEEFQIYVDEVPLPFPGHALIAVATSVVLGVLIFIAFVFQLRNIHPLKALKKSIRGNPGLTSSTTVSS
Turning to B3, the binding result is reported as “binds weakly”.

For the origin of these results see publication PMC12624607.
